Measured values taken from patent US11135306 (dated 2021).

Assay: general procedure: solution-phase peptide synthesis; DEPC/DIPEA; p-nitrophenyl carbonate with HOBt/DIPEA/pyridine
Conditions: for conjugation yield: conjugation step

Substance	conjugation yield	step yield (late stage modification step)
alkynyl-PEG4-Val-Cit-PAB-MMAE	45%	
Boc-hydroxylamino-PEG4-Val-Cit-PAB-MMAE	41%	
hydroxylamino-PEG4-Val-Cit-PAB-MMAE		65%
